Structures can show the parent of a compound that is named as a salt. In all, about 1,600 compounds were measured (“Hit score”: median about 0.13, highest 2% from about 0.46 on). Some of the results follow.

For 71 molecules, Hit score results are on record in ChEMBL document CHEMBL4303122, “Identification of potential treatments for COVID-19 through artificial intelligence-enabled phenomic analysis of human cells infected with SARS-CoV-2” (2020).

The test system of the assay is SARS-CoV-2. As to the kind of experiment: Antiviral activity against SARS-CoV-2 (USA-WA1/2020 strain) measured by imaging in HRCE cells at MOI 0.4 after 96 hrs (reported as hit score from 0-1 for on-disease vs off-disease activity: scores >0.6 considered hits). The class given is functional, Homo sapiens.
For `COC(=O)/C=C/C(=O)OC` [DIMETHYL FUMARATE], the Hit score stood at 0.2569.
As for `CC(C)(C)NC[C@H](O)COc1cccc2c1CCCC2=O` [LEVOBUNOLOL], the figure is 0.1851.
Then `C[N+](C)(C)CCOC(N)=O` [CARBAMOYLCHOLINE], with 0.06455.
Then `O=C(NC(Cc1cc(=O)[nH]c2ccccc12)C(=O)O)c1ccc(Cl)cc1` (stereo unspecified) [REBAMIPIDE], with 0.1332; and `C=CCN1CC[C@]23CCCC[C@H]2[C@H]1Cc1ccc(O)cc13` [LEVALLORPHAN], with 0.1904; and `OCC(CO)N[C@H]1C[C@](O)(CO)[C@@H](O)[C@H](O)[C@H]1O` [VOGLIBOSE], with 0.1287.
Turning to `CCOC(CN1CCN(CC(C)C(=O)c2ccccc2)CC1)c1ccccc1` (stereo unspecified) [EPRAZINONE], the Hit score is on record as 0.2949.
Then `OC(CCN1CCCCC1)(c1ccccc1)c1ccccc1` [PRIDINOL], with 0.1349.
Then `Cc1c(Cl)c(C)[n+]([O-])c(Cl)c1-c1noc(-c2cc(O)c(O)c([N+](=O)[O-])c2)n1` [OPICAPONE], with -0.07412; and `CCCCC(=O)N(Cc1ccc(-c2ccccc2-c2nnn[nH]2)cc1)[C@H](C(=O)O)C(C)C`, with 0.04941; and `CCN(CC)CCNC(=O)c1cc(Br)c(N)cc1OC` [BROMOPRIDE], with 0.05478.
The molecule `Cc1ccc(Nc2nccc(N(C)c3ccc4c(C)n(C)nc4c3)n2)cc1S(N)(=O)=O` [PAZOPANIB] displayed a Hit score of 0.1082.
For `C[C@@H](O)[C@H]1C(=O)N2C(C(=O)OCOC(=O)C(C)(C)C)=C(SC3CN(C4=NCCS4)C3)[C@H](C)[C@H]12` [TEBIPENEM PIVOXIL], the Hit score was 0.09408.
`CSCC[C@H](NC(=O)[C@H](Cc1c[nH]c2ccccc12)NC(=O)CCNC(=O)OC(C)(C)C)C(=O)N[C@@H](CC(=O)O)C(=O)N[C@@H](Cc1ccccc1)C(N)=O` [PENTAGASTRIN] showed a Hit score of 0.1737.
As for `Cc1c(C(=O)Nc2ccc(N3C[C@@H](C)O[C@@H](C)C3)nc2)cccc1-c1ccc(OC(F)(F)F)cc1` [SONIDEGIB], the figure is 0.05683.
For the molecule `Nc1nc(/C(=C/CC(=O)O)C(=O)N[C@@H]2C(=O)N3C(C(=O)O)=CCS[C@H]23)cs1` [CEFTIBUTEN], the Hit score is reported as 0.05059.
Regarding `CCOc1ccc(Cc2nccc3cc(OCC)c(OCC)cc23)cc1OCC` [ETHAVERINE], the Hit score is given as 0.02741.
As for `CN(C(=O)/C=C/c1ccoc1)[C@@H]1CC[C@@]2(O)[C@H]3Cc4ccc(O)c5c4[C@@]2(CCN3CC2CC2)[C@H]1O5` [NALFURAFINE], the figure is 0.1349; as for `O=C(Nc1ccc([N+](=O)[O-])cc1Cl)c1cc(Cl)ccc1O` [NICLOSAMIDE], 0.443.
The molecule `CC(C)c1nc(CN(C)C(=O)N[C@@H](CCN2CCOCC2)C(=O)N[C@H](CC[C@H](Cc2ccccc2)NC(=O)OCc2cncs2)Cc2ccccc2)cs1` [COBICISTAT] registered a Hit score of 0.1186.
For the molecule `C#C[C@]1(O)CC[C@H]2[C@@H]3CCC4=CCCC[C@@H]4[C@H]3C(=C)C[C@@]21CC` [DESOGESTREL], the Hit score is -0.03558.
Then `CC12CC3CC(C)(C1)CC(N)(C3)C2` [MEMANTINE], with 0.1136; and `CN1C(C(=O)Nc2ccccn2)=C(O)c2sc(Cl)cc2S1(=O)=O` [LORNOXICAM], with 0.1815.
As for `Nc1ccn([C@H]2CO[C@@H](CO)S2)c(=O)n1` [APRICITABINE], the figure is 0.02649.
As for `O=c1cc[nH]c(=O)[nH]1` [URACIL], the figure is 0.2028; as for `O=C(O)CCCN1CCC(O[C@@H](c2ccc(Cl)cc2)c2ccccn2)CC1` [BEPOTASTINE], 0.1376; as for `C[C@@H](O)[C@H]1C(=O)N2C(C(=O)O)=C([C@H]3CCCO3)S[C@H]12` [FAROPENEM], 0.1823.
Molecule `COc1ccc(-c2ccc3cc(C(=O)O)ccc3c2)cc1C12CC3CC(CC(C3)C1)C2` yielded a Hit score of 0.1742.
`CCCCc1oc2ccccc2c1C(=O)c1cc(I)c(OCCN(CC)CC)c(I)c1` [AMIODARONE] displayed a Hit score of 0.1232.
Turning to `CC(C)n1nccc1-c1ncccc1COc1cccc(O)c1C=O` [VOXELOTOR], the Hit score was 0.1638.
Then `O=S(=O)([O-])CCS.[Na+]` [MESNA], with 0.149; and `CN1C(=O)N(C)C2C1N(C)C(=O)N2C` (stereo unspecified) [MEBICAR], with 0.1618; and `N#CC1(c2ccc(NC(=O)c3cccnc3NCc3ccncc3)cc2)CCCC1` [RIVOCERANIB], with 0.08782.
In turn, `OC[C@@H](O)CN1CCN(c2ccccc2)CC1` [LEVODROPROPIZINE] gave a Hit score of 0.1177.
Consider `COc1ccc(CCO[C@@H]2CCCC[C@H]2N2CC[C@@H](O)C2)cc1OC` [VERNAKALANT], for which the Hit score was found to be 0.04877.
Then `Cc1cccc(Cc2c[nH]cn2)c1C` [DETOMIDINE], with 0.2278; and `COc1ccc(CNc2nc(N3CCC[C@H]3CO)ncc2C(=O)NCc2ncccn2)cc1Cl`, with 0.0319; and `CC(C)(C)CC(C)(C)c1ccc(OCCOCC[N+](C)(C)Cc2ccccc2)cc1` [BENZETHONIUM], with 0.03086.
For `Cn1nnc2c(C(N)=O)ncn2c1=O` [TEMOZOLOMIDE], the Hit score came to 0.2002.
As for `CC(C)C(=O)c1c(C(C)C)nn2ccccc12` [IBUDILAST], the Hit score came out at 0.1885.
As for `CC(CN(C)C)CN1c2ccccc2CCc2ccccc21` (stereo unspecified) [TRIMIPRAMINE], the figure is 0.08026.
Take `C#C[C@]1(O)CC[C@H]2[C@@H]3CCC4=CC(=O)CCC4=C3C=C[C@@]21CC` [GESTRINONE]: the Hit score stood at 0.3099.
`OC(CCN1CCCC1)(c1ccccc1)C1CCCCC1` (stereo unspecified) [PROCYCLIDINE] returned a Hit score of 0.2175.
Then `Cn1c(=O)c2c(ncn2CCOC(=O)C(C)(C)Oc2ccc(Cl)cc2)n(C)c1=O` [THEOFIBRATE], with 0.04373; and `CC(C)NCC(O)COc1cccc2[nH]ccc12` (stereo unspecified) [PINDOLOL], with 0.3758.
`CCCCCCCCO` [OCTANOL] yielded a Hit score of -0.003184.
`CCN(CC)C(=O)N1CCN(C)CC1` [DIETHYLCARBAMAZINE]: the Hit score worked out at 0.06731.
Then `C=CC[N+]1([C@H]2C[C@H]3[C@@H]4CC[C@H]5C[C@H](O)[C@@H](N6CCOCC6)C[C@]5(C)[C@H]4CC[C@]3(C)[C@H]2OC(C)=O)CCCC1` [ROCURONIUM], with 0.1086; and `COc1ccc(-n2nc(CCC(=O)N(C)O)cc2-c2ccc(Cl)cc2)cc1` [TEPOXALIN], with 0.1984; and `CCCOC(C(=O)OC1CCN(C)CC1)(c1ccccc1)c1ccccc1.Cl`, with 0.3138.
Molecule `CC(CCc1ccc(O)cc1)NCC(O)c1ccc(O)cc1` (stereo unspecified) [RACTOPAMINE] showed a Hit score of -0.0741.
On to `CCN(CCCc1ccccc1)CCCc1ccccc1` [ALVERINE], for which the Hit score amounted to 0.3515.
Then `CCCCC(CC)COC(=O)c1ccccc1O` (stereo unspecified) [OCTISALATE], with 0.1384; and `CCc1cc(/C(C)=N/OCc2ccc(C3CCCCC3)c(C(F)(F)F)c2)ccc1CN1CC(C(=O)O)C1` [SIPONIMOD], with -0.1293; and `NC(=O)NO` [HYDROXYUREA], with 0.237.
`CO/N=C1\CN(c2nc3c(cc2F)c(=O)c(C(=O)O)cn3C2CC2)CC1CN` (stereo unspecified) [GEMIFLOXACIN]: the Hit score is reported as 0.07253.
The molecule `Cc1onc(-c2ccccc2Cl)c1C(=O)N[C@@H]1C(=O)N2[C@@H]1SC(C)(C)[C@@H]2C(=O)O` [CLOXACILLIN] registered a Hit score of 0.1888.
Then `CCC(=O)NC[C@@H]1C[C@H]1c1cccc2c1CCO2` [TASIMELTEON], with 0.1536; and `Clc1ccc(COC(Cn2ccnc2)c2ccc(Cl)cc2Cl)cc1` (stereo unspecified) [ECONAZOLE], with 0.2282.
Then `COc1cc2c(cc1OC)[C@@H]1Cc3ccc(OC)c(OC)c3CN1CC2` [TETRAHYDROPALMATINE], with 0.0185; and `C=C1/C(=C\C=C2/CCC[C@]3(C)[C@@H]([C@H](C)OCCC(C)(C)O)CC[C@@H]23)C[C@@H](O)C[C@@H]1O` [MAXACALCITOL], with -0.1282; and `CO[C@H]1C[C@H](O[C@H]2[C@H](C)O[C@@H](O[C@@H]3/C(C)=C/C[C@@H]4C[C@@H](C[C@]5(C=C[C@H](C)[C@@H](C6CCCCC6)O5)O4)OC(=O)[C@@H]4C=C(C)[C@@H](O)[C@H]5OC/C(=C\C=C\[C@@H]3C)[C@]54O)C[C@@H]2OC)O[C@@H](C)[C@@H]1O` [DORAMECTIN], with 0.1058.
Then `COc1ccc2nc3cc(Cl)ccc3c(Nc3cc(CN4CCCC4)c(O)c(CN4CCCC4)c3)c2n1` [PYRONARIDINE], with 0.01775; and `Nc1nc(=O)c2c([nH]1)NCC(CNc1ccc(C(=O)N[C@@H](CCC(=O)O)C(=O)O)cc1)N2C=O` (stereo partly specified) [LEUCOVORIN], with 0.1373; and `Cc1ccc(O)c([C@H](CCN(C(C)C)C(C)C)c2ccccc2)c1` [TOLTERODINE], with 0.1793.
`C=CCc1ccccc1OCC(O)CNC(C)C` (stereo unspecified) [ALPRENOLOL] returned a Hit score of 0.3773.
As for `NC[C@H]1CC[C@H](C(=O)O)CC1` [TRANEXAMIC ACID], the figure is 0.2997; as for `CC(=O)OC(C)C[N+](C)(C)C` (stereo unspecified) [METHACHOLINE], 0.1317; as for `O=C(O)c1cc(=O)c2c(OCC(O)COc3cccc4oc(C(=O)O)cc(=O)c34)cccc2o1` [CROMOLYN], 0.1049.
Then `C[C@H](CCC(=O)O)[C@H]1CC[C@H]2[C@@H]3[C@@H](O)C[C@@H]4C[C@H](O)CC[C@]4(C)[C@H]3CC[C@]12C` [URSODIOL], with 0.2784.
For `CC(=O)c1ccc2c(c1)N(CCCN1CCN(CCO)CC1)c1ccccc1S2` [ACETOPHENAZINE], the Hit score was determined as 0.1549.
